Our source for the binding values is article doi:10.1101/2025.10.27.684971.

Sequences of proteins named here, by UniProt entry; tags and fusion partners are left off. Residues count along the entry.
UniProt Q92804, residues 2-205: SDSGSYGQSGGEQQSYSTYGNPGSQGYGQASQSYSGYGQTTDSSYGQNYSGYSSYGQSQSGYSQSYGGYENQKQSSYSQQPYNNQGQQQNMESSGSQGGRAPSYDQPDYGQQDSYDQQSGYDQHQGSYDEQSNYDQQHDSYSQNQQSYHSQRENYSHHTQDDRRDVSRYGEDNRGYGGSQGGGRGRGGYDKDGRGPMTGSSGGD
UniProt Q8NDZ2: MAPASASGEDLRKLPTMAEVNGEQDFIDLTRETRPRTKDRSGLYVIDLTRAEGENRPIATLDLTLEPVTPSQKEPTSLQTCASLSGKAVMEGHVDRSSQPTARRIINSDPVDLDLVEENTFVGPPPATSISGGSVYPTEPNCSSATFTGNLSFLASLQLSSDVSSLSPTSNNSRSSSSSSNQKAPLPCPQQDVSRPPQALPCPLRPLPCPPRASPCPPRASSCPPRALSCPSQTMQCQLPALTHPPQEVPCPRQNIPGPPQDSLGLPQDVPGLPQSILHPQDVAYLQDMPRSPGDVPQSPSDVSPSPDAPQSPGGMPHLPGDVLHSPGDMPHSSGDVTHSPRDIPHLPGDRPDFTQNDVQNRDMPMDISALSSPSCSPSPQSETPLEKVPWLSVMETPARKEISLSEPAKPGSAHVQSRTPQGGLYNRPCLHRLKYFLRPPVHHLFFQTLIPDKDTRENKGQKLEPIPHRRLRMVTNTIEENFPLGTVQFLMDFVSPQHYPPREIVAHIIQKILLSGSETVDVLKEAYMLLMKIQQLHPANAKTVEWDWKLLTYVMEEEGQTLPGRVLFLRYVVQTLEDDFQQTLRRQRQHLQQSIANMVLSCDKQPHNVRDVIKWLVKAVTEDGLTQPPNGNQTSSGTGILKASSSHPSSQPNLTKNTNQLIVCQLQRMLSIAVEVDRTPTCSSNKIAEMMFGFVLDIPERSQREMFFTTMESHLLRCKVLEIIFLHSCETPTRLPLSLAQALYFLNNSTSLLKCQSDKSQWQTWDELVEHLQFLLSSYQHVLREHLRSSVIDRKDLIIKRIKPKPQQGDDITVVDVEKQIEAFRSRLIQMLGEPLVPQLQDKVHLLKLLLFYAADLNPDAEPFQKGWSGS

No constants are given. Whether binding was seen depends on the method and setting. In cells and extracts the contact can be indirect. Here binding means that the protein was enriched with, or labelled near, the bait; the list need not be complete. A no says only that the protein was not detected with the bait.

This experiment deals with TurboID and mCherry fused directly to TAF15 IDR (human) (UniProt Q92804). The experiment is described as follows: proximity labelling.

On to SIMC1 (from UniProt Q8NDZ2 1-872), for which the binding entry is listed as “no binding”.
